We go through one molecule from article PMC7886320.

These are yes or no findings as the source states them, for the method shown. Tags and fused reporters may be left off the sequences shown.

The assay concerns the target T1, His-tagged ExoU (Pseudomonas aeruginosa exotoxin U) (Pseudomonas aeruginosa), O34208.
T1 chain: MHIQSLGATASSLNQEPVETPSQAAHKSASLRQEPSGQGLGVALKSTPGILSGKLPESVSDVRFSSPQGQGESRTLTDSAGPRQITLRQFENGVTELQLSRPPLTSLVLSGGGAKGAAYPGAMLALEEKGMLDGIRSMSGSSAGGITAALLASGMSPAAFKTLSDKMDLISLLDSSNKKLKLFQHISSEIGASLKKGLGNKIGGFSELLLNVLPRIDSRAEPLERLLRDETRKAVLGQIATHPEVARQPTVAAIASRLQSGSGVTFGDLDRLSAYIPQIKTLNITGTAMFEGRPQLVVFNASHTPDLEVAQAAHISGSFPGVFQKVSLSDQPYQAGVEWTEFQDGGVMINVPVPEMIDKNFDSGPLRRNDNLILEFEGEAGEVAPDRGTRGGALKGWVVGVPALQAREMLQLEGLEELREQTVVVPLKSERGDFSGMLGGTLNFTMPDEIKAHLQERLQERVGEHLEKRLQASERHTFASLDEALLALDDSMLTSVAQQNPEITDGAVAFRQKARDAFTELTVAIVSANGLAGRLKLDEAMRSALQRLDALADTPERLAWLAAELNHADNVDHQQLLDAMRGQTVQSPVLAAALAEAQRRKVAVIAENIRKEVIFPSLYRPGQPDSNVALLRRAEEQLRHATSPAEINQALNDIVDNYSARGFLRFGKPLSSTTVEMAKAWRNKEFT
Kind of assay: SEC; purified His-ExoU alone, with reference to a series of molecular mass standards; 16/600 Superdex 200 in 20 mM Tris-HCl pH 8.2, 100 mM NaCl, 10% (v/v) glycerol; no PIP2; both purified. The note with it: remark: other sources report otherwise. (In general: In gel filtration, larger molecules generally elute earlier.)

B1: His-tagged ExoU (Pseudomonas aeruginosa exotoxin U), O34208 1-687 (enzyme)
chain: T1 chain
As for B1, the binding result is listed as “no binding”.
